Series [1] in a line: general procedure: Fmoc solid-phase peptide synthesis; Sieber amide resin. The conditions noted are these: whole synthesis, LC/MS UV 225 nm, thioether ring, sequence written open.
Series [2] is described as follows: general procedure: Fmoc solid-phase peptide synthesis; Cl-Trt(2-Cl) resin. The conditions noted are these: conjugation step, LC/MS UV 225 nm, thioether ring, sequence written open.

From patent EP4818191A1 (PeptiDream Inc., priority 2023, dated 2025) come the findings set out here.

For “ClAc-da-Tbg-3Py6CON-Hgl-Meda-Ahp-pHPeG-S-5Inda-HseMe-dk(PEG8c)-Y-MeC”, in series [1], the “final purity (method not given)” value was 96.0%.

“ClAc-da-Tbg-3Py6CON-Hgl-Meda-Ahp-pHPeG-S-5Inda-HseMe-dk-Y-MeCt”: in series [2], the “final purity (method not given)” value is on record as 99.5%.
